In patent US20210332107A1:
Numbering of substitutions follows the chain as printed. Results are given in words; binding and its absence hold for the method and conditions named. Some entries that bind do so weakly or less than the wild type. Values belong to the binder of their own block, whether it stands above or below them.

Chains of the proteins cited; added tags and fusions are not shown. Lines headed by an entry give the natural chain unless they say otherwise; changes in a name come on top.
UniProt P02454: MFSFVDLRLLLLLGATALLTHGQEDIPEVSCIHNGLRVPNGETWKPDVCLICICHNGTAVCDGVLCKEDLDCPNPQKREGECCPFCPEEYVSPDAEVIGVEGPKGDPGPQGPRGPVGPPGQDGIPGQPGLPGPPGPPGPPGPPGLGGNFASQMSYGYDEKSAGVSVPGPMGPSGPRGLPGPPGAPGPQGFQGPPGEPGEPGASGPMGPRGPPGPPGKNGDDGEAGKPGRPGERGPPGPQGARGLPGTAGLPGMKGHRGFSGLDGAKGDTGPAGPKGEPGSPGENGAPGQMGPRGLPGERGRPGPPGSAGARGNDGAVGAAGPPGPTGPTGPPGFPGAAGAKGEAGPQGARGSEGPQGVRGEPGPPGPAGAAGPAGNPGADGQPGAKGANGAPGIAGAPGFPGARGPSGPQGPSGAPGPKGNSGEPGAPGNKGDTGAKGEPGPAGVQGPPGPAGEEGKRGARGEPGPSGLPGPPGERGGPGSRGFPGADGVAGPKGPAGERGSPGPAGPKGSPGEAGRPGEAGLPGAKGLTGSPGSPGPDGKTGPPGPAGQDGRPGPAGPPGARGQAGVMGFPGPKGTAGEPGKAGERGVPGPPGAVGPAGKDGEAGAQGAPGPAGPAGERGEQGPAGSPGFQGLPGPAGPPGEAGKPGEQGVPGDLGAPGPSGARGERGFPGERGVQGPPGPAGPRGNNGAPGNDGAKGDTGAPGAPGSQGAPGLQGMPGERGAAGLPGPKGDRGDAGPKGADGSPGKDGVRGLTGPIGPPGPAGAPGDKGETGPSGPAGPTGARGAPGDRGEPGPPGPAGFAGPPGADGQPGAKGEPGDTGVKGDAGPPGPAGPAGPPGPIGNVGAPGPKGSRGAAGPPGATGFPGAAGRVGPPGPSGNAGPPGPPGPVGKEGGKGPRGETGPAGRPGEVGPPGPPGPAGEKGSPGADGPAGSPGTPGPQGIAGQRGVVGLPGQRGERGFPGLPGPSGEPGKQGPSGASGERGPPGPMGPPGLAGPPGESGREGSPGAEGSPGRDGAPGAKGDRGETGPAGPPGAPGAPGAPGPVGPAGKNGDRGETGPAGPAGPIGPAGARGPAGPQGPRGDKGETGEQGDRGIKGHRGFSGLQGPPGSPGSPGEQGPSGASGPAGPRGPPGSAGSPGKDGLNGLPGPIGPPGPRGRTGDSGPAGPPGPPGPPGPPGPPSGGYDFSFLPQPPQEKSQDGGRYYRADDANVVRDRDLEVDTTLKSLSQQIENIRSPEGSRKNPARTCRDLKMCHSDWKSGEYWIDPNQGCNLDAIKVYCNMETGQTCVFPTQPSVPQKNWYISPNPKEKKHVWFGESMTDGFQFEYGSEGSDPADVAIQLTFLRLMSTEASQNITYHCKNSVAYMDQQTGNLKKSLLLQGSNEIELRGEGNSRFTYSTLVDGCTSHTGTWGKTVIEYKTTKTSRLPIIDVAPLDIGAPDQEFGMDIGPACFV
UniProt P02466: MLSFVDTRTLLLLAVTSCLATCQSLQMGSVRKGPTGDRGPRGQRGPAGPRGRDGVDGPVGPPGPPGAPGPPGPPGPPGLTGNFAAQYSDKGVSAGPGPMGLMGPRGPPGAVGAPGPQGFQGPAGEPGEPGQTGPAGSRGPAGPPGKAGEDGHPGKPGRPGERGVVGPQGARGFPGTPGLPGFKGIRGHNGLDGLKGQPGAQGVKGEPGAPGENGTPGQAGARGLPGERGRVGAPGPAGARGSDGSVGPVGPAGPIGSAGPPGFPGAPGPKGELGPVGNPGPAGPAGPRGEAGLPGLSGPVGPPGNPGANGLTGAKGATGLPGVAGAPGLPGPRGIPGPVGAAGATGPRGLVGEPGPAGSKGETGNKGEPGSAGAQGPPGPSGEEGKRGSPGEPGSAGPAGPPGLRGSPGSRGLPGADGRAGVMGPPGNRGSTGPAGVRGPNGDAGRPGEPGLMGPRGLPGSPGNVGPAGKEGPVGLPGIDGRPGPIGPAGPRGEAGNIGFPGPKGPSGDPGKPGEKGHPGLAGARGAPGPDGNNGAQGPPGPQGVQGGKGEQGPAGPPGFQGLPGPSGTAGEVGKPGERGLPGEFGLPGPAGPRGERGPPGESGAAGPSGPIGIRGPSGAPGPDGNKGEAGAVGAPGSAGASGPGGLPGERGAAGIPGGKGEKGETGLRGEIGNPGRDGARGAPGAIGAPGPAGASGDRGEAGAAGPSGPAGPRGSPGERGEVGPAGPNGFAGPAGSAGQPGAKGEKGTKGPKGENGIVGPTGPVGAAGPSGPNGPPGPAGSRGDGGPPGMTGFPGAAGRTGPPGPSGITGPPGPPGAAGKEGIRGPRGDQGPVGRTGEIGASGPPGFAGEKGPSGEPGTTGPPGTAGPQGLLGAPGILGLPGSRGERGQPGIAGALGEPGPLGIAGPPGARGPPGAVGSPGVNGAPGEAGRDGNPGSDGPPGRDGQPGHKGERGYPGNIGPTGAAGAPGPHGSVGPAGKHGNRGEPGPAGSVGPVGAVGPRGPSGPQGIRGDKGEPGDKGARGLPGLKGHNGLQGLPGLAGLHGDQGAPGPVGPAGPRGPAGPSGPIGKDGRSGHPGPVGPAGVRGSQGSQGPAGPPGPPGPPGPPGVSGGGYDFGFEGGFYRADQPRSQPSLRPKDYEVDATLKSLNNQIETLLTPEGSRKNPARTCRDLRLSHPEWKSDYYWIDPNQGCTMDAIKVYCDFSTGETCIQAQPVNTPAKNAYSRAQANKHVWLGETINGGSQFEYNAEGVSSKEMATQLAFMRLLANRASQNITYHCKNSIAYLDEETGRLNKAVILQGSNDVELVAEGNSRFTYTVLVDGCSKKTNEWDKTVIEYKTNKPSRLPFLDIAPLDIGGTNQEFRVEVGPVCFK

Biological target: rat collagen-I (rat) (UniProt P02454+P02466)
Experiment: ELISA; 96-well plate coated with rat collagen-I, PEDF incubated, bound PEDF detected with an anti-PEDF antibody

- binding: binds
B1: wild type human pigment epithelium-derived factor (PEDF) (protein)
chain: QNPASPPEEGSPDPDSTGALVEEEDPFFKVPVNKLAAAVSNFGYDLYRVRSSTSPTTNVLLSPLSVATALSALSLGAEQRTESIIHRALYYDLISSPDIHGTYKELLDTVTAPQKNLKSASRIVFEKKLRIKSSFVAPLEKSYGTRPRVLTGNPRLDLQEINNWVQAQMKGKLARSTKEIPDEISILLLGVAHFKGQWVTKFDSRKTSLEDFYLDEERTVRVPMMSDPKAVLRYGLDSDLSCKIAQLPLTGSMSIIFFLPLKVTQNLTLIEESLTSEFIHDIDRELKTVQAVLTVPKLKLSYEGEVTKSLQEMKLQSLFDSPDFSKITGKPIKLTQVEHRAGFEWNEDGAGTTPSPGLQPAHLTFPLDYHLNQPFIFVLRDTDTGALLFIGKILDPRGP

- binding: binds
B2: engineered PEDF (6) (protein)
chain: B1 chain with G152K, A167K, A174K, E179K, D182K, E183K
